{"source": "the supplement of paper PMC7666118", "note": "This is one part of the list."}
{"compound": "COc1ccc(Cn2ccc3cc(C)c(C(=O)NO)cc32)cc1", "test": "dose-dependent thermal stabilisation call (2D-TPP, DLPTP, 10% FDR) (binary (1 = stabilised)); higher = stabilised by the compound", "settings": "system: HL-60 intact cells; concentration range 0.04-10 µM", "experimental": "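2D thermal proteome profiling in intact HL-60 cells treated with BRD-3811 (0, 0.04, 0.29, 2, 10 uM) for 90 min at 37 C, then heated 3 min at one of 12 temperatures (42-63.9 C). Soluble protein was quantified by TMT10 MS. The value is the DLPTP call of the paper: dose-dependent thermal stabilisation over all temperatures at 10% FDR (F-test of a dose-response against a flat model); one experiment, one call per tested protein.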"}
{"target": "PSMA2 (UniProt P25787)", "dose-dependent thermal stabilisation call": "inactive: 0"}
{"target": "PRKAB1 (UniProt Q9Y478)", "dose-dependent thermal stabilisation call": "inactive: 0"}
{"target": "PRPF39 (UniProt Q86UA1)", "dose-dependent thermal stabilisation call": "inactive: 0"}
{"target": "POLR3A (UniProt O14802)", "dose-dependent thermal stabilisation call": "inactive: 0"}
{"target": "PSMG1 (UniProt O95456)", "dose-dependent thermal stabilisation call": "inactive: 0"}
{"target": "PPP2CA (UniProt P67775)", "dose-dependent thermal stabilisation call": "inactive: 0"}
{"target": "PPIE (UniProt Q9UNP9)", "dose-dependent thermal stabilisation call": "inactive: 0"}
{"target": "PSMB7 (UniProt Q99436)", "dose-dependent thermal stabilisation call": "inactive: 0"}
{"target": "PRPF19 (UniProt Q9UMS4)", "dose-dependent thermal stabilisation call": "inactive: 0"}
{"target": "PSME3 (UniProt P61289)", "dose-dependent thermal stabilisation call": "inactive: 0"}
{"target": "PRDX6 (UniProt P30041)", "dose-dependent thermal stabilisation call": "inactive: 0"}
{"target": "PRKRIR (UniProt O43422)", "dose-dependent thermal stabilisation call": "inactive: 0"}
{"target": "PRKRIP1 (UniProt Q9H875)", "dose-dependent thermal stabilisation call": "inactive: 0"}
{"target": "PPP2R5D (UniProt Q14738)", "dose-dependent thermal stabilisation call": "inactive: 0"}
{"target": "PTK7 (UniProt Q13308)", "dose-dependent thermal stabilisation call": "inactive: 0"}
{"target": "POLR2D (UniProt O15514)", "dose-dependent thermal stabilisation call": "inactive: 0"}
{"target": "PPAPDC2 (UniProt Q8IY26)", "dose-dependent thermal stabilisation call": "inactive: 0"}
{"target": "PSMB6 (UniProt P28072)", "dose-dependent thermal stabilisation call": "inactive: 0"}
{"target": "PTCD3 (UniProt Q96EY7)", "dose-dependent thermal stabilisation call": "inactive: 0"}
{"target": "PRAF2 (UniProt O60831)", "dose-dependent thermal stabilisation call": "inactive: 0"}
{"target": "POLDIP3 (UniProt Q9BY77)", "dose-dependent thermal stabilisation call": "inactive: 0"}
{"target": "PTGES2 (UniProt Q9H7Z7)", "dose-dependent thermal stabilisation call": "inactive: 0"}
{"target": "PROSC (UniProt O94903)", "dose-dependent thermal stabilisation call": "inactive: 0"}
{"target": "PRKDC (UniProt P78527)", "dose-dependent thermal stabilisation call": "inactive: 0"}
{"target": "PPIL5 (UniProt Q96L50)", "dose-dependent thermal stabilisation call": "inactive: 0"}
{"target": "PPCS (UniProt Q9HAB8)", "dose-dependent thermal stabilisation call": "inactive: 0"}
{"target": "PPM1G (UniProt O15355)", "dose-dependent thermal stabilisation call": "inactive: 0"}
{"target": "PML (UniProt P29590)", "dose-dependent thermal stabilisation call": "inactive: 0"}
{"target": "POLR2I (UniProt P36954)", "dose-dependent thermal stabilisation call": "inactive: 0"}
{"target": "PTPN7 (UniProt P35236)", "dose-dependent thermal stabilisation call": "inactive: 0"}
{"target": "PPM1H (UniProt Q9ULR3)", "dose-dependent thermal stabilisation call": "inactive: 0"}
{"target": "PLXNC1 (UniProt O60486)", "dose-dependent thermal stabilisation call": "inactive: 0"}
{"target": "PPP1R12C (UniProt Q9BZL4)", "dose-dependent thermal stabilisation call": "inactive: 0"}
{"target": "PSIP1 (UniProt O75475)", "dose-dependent thermal stabilisation call": "inactive: 0"}
{"target": "PTPMT1 (UniProt Q8WUK0)", "dose-dependent thermal stabilisation call": "inactive: 0"}
{"target": "PPP3CC (UniProt P48454)", "dose-dependent thermal stabilisation call": "inactive: 0"}
{"target": "POLR2K (UniProt P53803)", "dose-dependent thermal stabilisation call": "inactive: 0"}
{"target": "PRMT3 (UniProt O60678)", "dose-dependent thermal stabilisation call": "inactive: 0"}
{"target": "PSMD4 (UniProt P55036)", "dose-dependent thermal stabilisation call": "inactive: 0"}
{"target": "PRCC (UniProt Q92733)", "dose-dependent thermal stabilisation call": "inactive: 0"}
